# Laboratory results: patent publication US20170035742A1, “DURABLE TREATMENT WITH 4-AMINOPYRIDINE IN PATIENTS WITH DEMYELINATION” (Acorda Therapeutics, Inc., priority 2009, published 2017)
# Tested on: patients with multiple sclerosis
# Assay: MS-F203EXT open-label extension study
smiles,measurement,setting,value
Nc1ccncc1 [4-aminopyridine],retention rate,after one year,82.9%
same,retention rate,after two years,75%
